In PMC4180847:
These are yes or no findings as the source states them, for the method shown. Binding seen in cells or lysates may run through a third protein. Some binding calls cover weakened binding; strength is not graded here.

Protein sequences, listed by entry. Tags and fused reporters are not part of them. Lines headed by an entry give the natural chain unless they say otherwise; changes in a name come on top.
UniProt Q00987: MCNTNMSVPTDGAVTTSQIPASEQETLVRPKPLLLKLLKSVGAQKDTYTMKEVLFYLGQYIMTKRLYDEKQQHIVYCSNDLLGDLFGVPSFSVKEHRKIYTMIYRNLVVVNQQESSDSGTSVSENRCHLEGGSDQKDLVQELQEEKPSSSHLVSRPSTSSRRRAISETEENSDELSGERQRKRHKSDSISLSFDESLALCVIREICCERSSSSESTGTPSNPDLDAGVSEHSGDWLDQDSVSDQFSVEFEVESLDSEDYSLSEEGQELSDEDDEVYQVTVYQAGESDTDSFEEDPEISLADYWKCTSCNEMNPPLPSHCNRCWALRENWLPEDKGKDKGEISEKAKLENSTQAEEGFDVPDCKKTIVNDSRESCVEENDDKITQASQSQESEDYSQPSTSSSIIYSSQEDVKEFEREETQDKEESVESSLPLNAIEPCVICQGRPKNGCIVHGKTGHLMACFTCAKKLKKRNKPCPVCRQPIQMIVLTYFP

Key:
[1] = target: T1, nucleostemin (human (endogenous in 10AT-Her2, SKBR3, MCF-7, MDA-MB-231)) (UniProt Q9BVP2); assay: co-IP; total extracts of SKBR3 cells treated with or without 200 μM I3C for 48 hours, immunoprecipitated with nucleostemin antibodies; Western blot for serine-166 phosphorylated MDM2 or total MDM2
T1 sequence: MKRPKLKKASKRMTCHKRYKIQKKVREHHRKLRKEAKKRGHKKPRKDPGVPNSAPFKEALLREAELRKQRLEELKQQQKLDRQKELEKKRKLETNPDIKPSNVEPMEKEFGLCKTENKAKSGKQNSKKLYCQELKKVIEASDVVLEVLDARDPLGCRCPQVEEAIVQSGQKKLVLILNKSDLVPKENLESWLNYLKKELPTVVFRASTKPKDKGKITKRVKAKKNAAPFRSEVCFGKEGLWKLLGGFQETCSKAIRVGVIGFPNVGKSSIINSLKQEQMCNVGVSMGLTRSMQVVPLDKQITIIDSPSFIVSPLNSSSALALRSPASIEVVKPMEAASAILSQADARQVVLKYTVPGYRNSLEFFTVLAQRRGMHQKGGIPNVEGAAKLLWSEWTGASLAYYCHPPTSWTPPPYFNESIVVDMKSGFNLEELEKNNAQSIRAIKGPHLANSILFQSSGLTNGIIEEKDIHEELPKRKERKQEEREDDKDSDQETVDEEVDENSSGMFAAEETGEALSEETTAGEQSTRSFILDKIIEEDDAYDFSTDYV

[2] = target: T1, nucleostemin (human (endogenous in 10AT-Her2, SKBR3, MCF-7, MDA-MB-231)); assay: co-IP; total extracts of 10AT-Her2 cells treated with or without 200 μM I3C for 48 hours (also cells transfected with EV, WT or Δ205 elastase vectors), immunoprecipitated with nucleostemin antibodies; Western blot for serine-166 phosphorylated MDM2 or total MDM2

binding [1] | binding [2] | Substance
binds | binds | MDM2 (murine double mutant 2) (from UniProt Q00987 1-491)
– | binds | serine-166 (Ser166) phosphorylated MDM2 (from UniProt Q00987 1-491)
